Experimental data taken from PMC6135852.
Results are given in words; binding and its absence hold for the method and conditions named. For part of these data: A result given as binding can be weak or reduced; the word gives no strength.

B1: cell wall hydrolase LytH (enzyme, UniProt O32421 1-291)
chain: MKKIEAWLSKKGLKNKRTLIVVIAFVLFIIFLFLLLNSNSEDSGNITITENAELRTGPNAAYPVIYKVEKGDHFKKIGKVGKWIEVEDTSSNEKGWIAGWHTNLDIVADNTKEKNPLQGKTIVLDPGHGGSDQGASSNTKYKSLEKDYTLKTAKELQRTLEKEGATVKMTRTDDTYVSLENRDIKGDAYLSIHNDALESSNANGMTVYWYHDNQRALADTLDATIQKKGLLSNRGSRQENYQVLRQTKVPAVLLELGYISNPTDETMIKDQLHRQILEQAIVDGLKIYFSA
B2: glycosyltransferase FtsW (enzyme, UniProt A0ABV4SSA3 1-437)
chain: MPGSSARAARRPPAARPPKKPARAARVSPVRRLYTQARRAWDRPLTAYYLILGSSLLITVLGLVMVYSASMITALQNGLPSSYYFRKQFLAAAIGGALLFAAMRMPVKLHRALAYPLLAGSVFLMVLVQVPGIGVSIGGNQNWISLGGPFMLQPSEFGKLALVLWGADLMARKHDKRLLSQWKHMLVPLVPVAFLLLGLIMLGGDMGTAILLTAILFGLLWLAGAPTRLFVGVLSVAAAIGAFLIKTSPNRMARLSCLGSTDAGPDDICWQGLHGIYALASGGFFGSGLGASVEKWGQLPEAHTDFIFAVTGEELGLAGTLSVLALYAALGYAGIRVAGRTEDPFVRYAAGGVTTWITAQAVVNLGAVLGLLPIAGVPLPLFSYGGSALLPTMFAVGLLIAFARDEPAARAALAMRQPRMRWNTMRRRATARTSGER
B3: glycosyltransferase RodA (enzyme, UniProt A0ABV4SE60 1-398)
chain: MAGTNGFSVSGYGPERSTLSRLMARDSVIRRLDWPILLSSLALSLIGSALVYSATRNRTVINQGDPYYFLFRHLMNTGIGLALMIGTIWLGHRTLRTVVPILYGASVFLMLLVLTPLGDTINGQRNWLSAGGVSLQPAEFAKITIILGMAMLLASRVDAGDKQYPDHRTVLQALGLAAVPMLVVLLMPDLGTIMVAVVIVLGVLLASGASNRWVFGLLGTGALGAVAVWKLGVLDEYQIARFAAFANPALDPAGVGYNTNQARIAIGSGGLTGTGLFHGSQTTGQFVPEQQTDFVFTVAGEELGFAGAGLILLLLAVVLWRACRIARETTELYGTIVAAGIIAWFAFQAFENIGMTLGIMPVAGLPLPFVSYGGSSMFAVWVAIGLLQSIRVQRPMSA
B4: cell wall hydrolase SsaA (enzyme, UniProt Q2FV55 1-255)
chain: MKKIVTATIATAGLATIAFAGHDAQAAEQNNNGYNSNDAQSYSYTYTIDAQGNYHYTWTGNWNPSQLTQNNTYYYNNYNTYSYNNASYNNYYNHSYQYNNYTNNSQTATNNYYTGGSGASYSTTSNNVHVTTTAAPSSNGRSISNGYASGSNLYTSGQCTYYVFDRVGGKIGSTWGNASNWANAAASSGYTVNNTPKVGAIMQTTQGYYGHVAYVEGVNSNGSVRVSEMNYGHGAGVVTSRTISANQAGSYNFIH

biological target: FemB (S. aureus NewmanHG); test: two-hybrid; bacterial adenylate cyclase two-hybrid (T25 bait and T18 prey fusions) in cya mutant E. coli BTH101; spotted on X-gal indicator plates with 0.5 mM IPTG, 5 days at 18 °C; blue after 2 to 4 days = interaction, slight colour change after 5 days = weak; each combination tested at least three times

**Q.** B1 was tested. Which binding did it give?
**A.** The binding was “binds”.

**Q.** With B2 as the binder, how does the binding read?
**A.** Its binding is “binds”.

**Q.** Which binding does the source give for B3 here?
**A.** The binding was “binds”.

biological target: phosphatase Stp (S. aureus NewmanHG); test: as above

**Q.** For B4, which binding is on record?
**A.** The binding was “no binding”.

**Q.** Which binding does the source give for B1 here?
**A.** The binding was “no binding”.

**Q.** Which binding does the source give for B2 here?
**A.** Its binding is “no binding”.

**Q.** For B3, which binding is on record?
**A.** The binding was “no binding”.

biological target: FemA (S. aureus NewmanHG); test: as above

**Q.** Which binding does the source give for B1 here?
**A.** Its binding is “binds”.

**Q.** How did the binding turn out when B2 was run?
**A.** The binding was “binds”.

**Q.** B3 was tested. Which binding did it give?
**A.** Its binding is “binds”.

biological target: lipid II:glycine glycyltransferase FemX (S. aureus NewmanHG); test: as above

**Q.** With B3 as the binder, how does the binding read?
**A.** Its binding is “binds weakly”.

biological target: serine/threonine kinase Stk (S. aureus NewmanHG); test: as above

**Q.** How did the binding turn out when B4 was run?
**A.** The binding was “no binding”.

**Q.** Which binding does the source give for B1 here?
**A.** Its binding is “binds”.

**Q.** Which binding does the source give for B2 here?
**A.** Its binding is “binds”.

**Q.** For B3, which binding is on record?
**A.** The binding was “binds”.
